## Percent effect of library compounds

By UniProt entry, the sequences of proteins in these tests, tags left out. Residues count along the entry.
UniProt Q4DA54, 1-478: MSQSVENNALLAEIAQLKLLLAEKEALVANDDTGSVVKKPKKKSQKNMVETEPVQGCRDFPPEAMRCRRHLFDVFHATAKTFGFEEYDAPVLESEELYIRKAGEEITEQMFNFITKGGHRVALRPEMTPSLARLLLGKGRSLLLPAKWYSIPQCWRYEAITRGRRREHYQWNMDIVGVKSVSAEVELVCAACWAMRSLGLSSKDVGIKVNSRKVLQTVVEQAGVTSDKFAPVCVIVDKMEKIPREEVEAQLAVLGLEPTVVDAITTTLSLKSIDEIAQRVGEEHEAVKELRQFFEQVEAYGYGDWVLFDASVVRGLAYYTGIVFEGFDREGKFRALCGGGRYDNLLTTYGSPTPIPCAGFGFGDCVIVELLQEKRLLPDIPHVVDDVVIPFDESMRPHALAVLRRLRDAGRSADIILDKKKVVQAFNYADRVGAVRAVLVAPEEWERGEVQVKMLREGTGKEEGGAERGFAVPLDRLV

Values are the deposited “Percent Effect”, in %.
The record does not define 0% and 100%; most values in the screen are far below 50% and negative numbers occur (in some assays of this library far below -100).
Compounds were drawn at random from those tested, without regard to their results.

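Histidine-tRNA ligase, Trypanosoma cruzi CL Brener (UniProt Q4DA54). Enzyme assay of histidyl-tRNA synthetase; the read-out is not stated. Tested at 30 µM. Direction is inferred from retests: higher values go with stronger inhibition. Size under these conditions: about 69,000 compounds, about 31 of them at 50% or above in at least one test.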

compound	Percent Effect
O=C(c1cc(C2CC2)on1)N1CCC(Oc2ncccc2Br)CC1	1.031%
Cc1ccc(-c2ccnc(NC(C)c3n[nH]c(=O)[nH]3)n2)c(C)n1 (stereo not shown)	2.273%
COc1cccc(NC(=O)CN(C(C)C)C2CC2)c1	1.818%
Cc1nc(CN2CCCC(N(C)Cc3nc(CC(C)C)no3)C2)no1 (stereo not shown)	4.202%
Cc1cnn(CC2CN(CCCS(C)(=O)=O)CCO2)c1 (stereo not shown)	4.233%
O=C(c1cscn1)N1CCC[C@]2(C[C@H](OCC3CC3)CO2)C1	4.918%
NS(=O)(=O)c1ccc(F)c(C(=O)NCCSc2ccccn2)c1	6.952%
CCN(CC)CCCN1CCN(c2nc(C)cnc2C)CC1	8.163%
Cc1n[nH]c(C2CN(C(=O)c3ccc4c(c3)CCCC4)CCO2)n1 (stereo not shown)	-19.61%
CC(Nc1cccc(CN2CCOC2=O)c1)C(=O)N1CCNC1=O (stereo not shown)	3.817%
COc1ccc(CN2CCC3(CC(=O)N(c4cncnc4)C3)C2)cc1 (stereo not shown)	0.5525%
CN1CCN(C2COC3(CCN(Cc4ccc(F)cc4)CC3)C2)CC1 (stereo not shown)	13.73%
N#Cc1cccnc1NCCNC(=O)N1CCCC(N2CCCC2)C1 (stereo not shown)	7.882%
CCc1nccn1C1CCCN(C(=O)c2csc(C3CC3)n2)C1 (stereo not shown)	3.429%
CN1CC[C@H]2[C@H](C[C@@H](Cn3cncn3)N2c2nccs2)C1	1.227%
CSCC[C@@H](CO)Nc1nc(-c2ccccn2)nc2c1c(C)nn2C	7.389%
CSc1c(CC(=O)O)n(C)c2ccccc12	1.031%
CCOC(C)c1noc(CN2CCN(c3ccncc3)CC2)n1 (stereo not shown)	7.097%
Cc1ccccc1N1CC2(CCN(Cc3nccn3C)C2)CC1=O (stereo not shown)	2.041%
COCc1ccc(C(=O)N(CCC#N)Cc2ccccn2)cc1	6.667%
CCCc1cc(=O)[nH]c2nnc(SCC(=O)OCC)n12	0%
COc1ccc(CNC(=O)N2CCCC(Nc3ccccc3)C2)cn1 (stereo not shown)	3.59%
COc1cc(C2C3=C(COC3=O)Nc3[nH]nc(C)c32)cc(Br)c1O (stereo not shown)	5.682%
CC(C)NC(=O)N1C[C@H](OCc2cccnc2)[C@H]2COC[C@H]21	1.869%
NCc1n[nH]c(=O)n1-c1ccccc1Oc1ccccc1	-1.19%
Cc1cccc(O[C@H]2COCCN(Cc3sc(C)nc3C)C2)n1	3.483%
c1ccc(CN2C[C@@H]3CC[C@H](C2)N(Cc2nnc(C4CC4)o2)C3)cc1	2.89%
COc1ccc(Cl)cc1C(=O)N1CCCC(n2nc(C)nc2C)C1 (stereo not shown)	3.759%
CC(C)c1nn(C)c(N2CCOCC2)c1CNCC(=O)N(C)C	-12.21%
CC(=O)c1cccc(OCCCC(=O)N(C)CC(N)=O)c1	2.956%
O=C(CNc1cccc2c1CCCC2)Nc1ccccc1Br	1.163%
CNC(=O)CCc1cc(C)nc(C2CCCCN2)n1 (stereo not shown)	13.33%
c1ccc2[nH]c(C3CCN(Cc4nnc(C5CC5)o4)CC3)nc2c1	5.263%
Cn1c(C(=O)NCC2(N)CCCC2)cc2ccccc21	0%
COCC1N(C(=O)c2ccc3c(c2)OCCCO3)[C@H]2CC[C@]1(O)CC2 (stereo partly shown)	3.371%
Cc1ccc(C(=O)NS(=O)(=O)Cc2ccc(F)cc2)cc1S(C)(=O)=O	6.077%
Cc1nn(C)c(N(C)C)c1CNC1CCc2cc(F)ccc21 (stereo not shown)	8.262%
c1coc(CN2Cc3ccnn3CC(COCC3CC3)C2)c1 (stereo not shown)	3.261%
CCN(C)c1ccc(CNC(=O)c2cc(C(N)=O)cs2)cc1F	10.53%
COCCN(CCOC)Cc1nc2c(cnn2C)c(=O)[nH]1	0.8596%
Cc1cccc(-c2nc(CN(Cc3cccs3)CC3CCCO3)no2)c1 (stereo not shown)	1.128%
CCC(CNC(=O)c1ccco1)N1CCc2ccccc2C1 (stereo not shown)	-2.956%
Cn1nccc1C(=O)N1CCC(n2cc(-c3ccsc3)nn2)CC1	4.598%
Cc1cc(C)c2c(N3CCN(CCN4CCOCC4)CC3)ncnc2n1	1.01%
CC(C)(C)Cc1noc2ncc(C(=O)N3CCC3)cc12	7.143%
COCC(O)CNC(=O)Nc1ccc(Cl)cc1-n1cccc1 (stereo not shown)	-0.8772%
COc1cc(N2CC[C@@H]3O[C@@H](c4ccncn4)C[C@H]3C2)ncn1	-3.743%
COC(=O)[C@H](CSC)Nc1nc(C2CCCC2)nc2c1cnn2C	7.514%
CCOc1ncccc1CNC(=O)N1CCCC1c1ccsc1 (stereo not shown)	6.34%
CCC1CN(Cc2nc(C(C)C)no2)CCC(=O)N1Cc1ccccc1 (stereo not shown)	-2.041%
O=C(c1ccc(S(=O)(=O)NCc2ccon2)cc1)N1CCCCCC1	2.146%
Cc1cccnc1CN1CCOC(Cc2cccc3ccccc23)C1 (stereo not shown)	2.703%
CCOC(=O)CC(C)Nc1nc(C(C)(C)C)nc2c1cnn2C (stereo not shown)	-1.235%

Once more, the final 4:

compound	Percent Effect
CCC1CN(Cc2nc(C(C)C)no2)CCC(=O)N1Cc1ccccc1 (stereo not shown)	-2.041%
O=C(c1ccc(S(=O)(=O)NCc2ccon2)cc1)N1CCCCCC1	2.146%
Cc1cccnc1CN1CCOC(Cc2cccc3ccccc23)C1 (stereo not shown)	2.703%
CCOC(=O)CC(C)Nc1nc(C(C)(C)C)nc2c1cnn2C (stereo not shown)	-1.235%

Data taken from ChEMBL document CHEMBL3988442, “University of Dundee, Small-Polar-MMV Screening Library” (2021).